From the supplement of paper PMC12819154, “High-throughput peptide-centric local stability assay extends protein–ligand identification to membrane proteins, tissues and bacteria” (Nature Structural & Molecular Biology, 2025)
This is one part of the list. Small differences around the control level are noise.

The chains behind the UniProt entries cited, without tags or fusion partners. Where a name states a change or a piece, a line headed by the entry shows the natural chain unless it says otherwise.
UniProt Q9UJW7: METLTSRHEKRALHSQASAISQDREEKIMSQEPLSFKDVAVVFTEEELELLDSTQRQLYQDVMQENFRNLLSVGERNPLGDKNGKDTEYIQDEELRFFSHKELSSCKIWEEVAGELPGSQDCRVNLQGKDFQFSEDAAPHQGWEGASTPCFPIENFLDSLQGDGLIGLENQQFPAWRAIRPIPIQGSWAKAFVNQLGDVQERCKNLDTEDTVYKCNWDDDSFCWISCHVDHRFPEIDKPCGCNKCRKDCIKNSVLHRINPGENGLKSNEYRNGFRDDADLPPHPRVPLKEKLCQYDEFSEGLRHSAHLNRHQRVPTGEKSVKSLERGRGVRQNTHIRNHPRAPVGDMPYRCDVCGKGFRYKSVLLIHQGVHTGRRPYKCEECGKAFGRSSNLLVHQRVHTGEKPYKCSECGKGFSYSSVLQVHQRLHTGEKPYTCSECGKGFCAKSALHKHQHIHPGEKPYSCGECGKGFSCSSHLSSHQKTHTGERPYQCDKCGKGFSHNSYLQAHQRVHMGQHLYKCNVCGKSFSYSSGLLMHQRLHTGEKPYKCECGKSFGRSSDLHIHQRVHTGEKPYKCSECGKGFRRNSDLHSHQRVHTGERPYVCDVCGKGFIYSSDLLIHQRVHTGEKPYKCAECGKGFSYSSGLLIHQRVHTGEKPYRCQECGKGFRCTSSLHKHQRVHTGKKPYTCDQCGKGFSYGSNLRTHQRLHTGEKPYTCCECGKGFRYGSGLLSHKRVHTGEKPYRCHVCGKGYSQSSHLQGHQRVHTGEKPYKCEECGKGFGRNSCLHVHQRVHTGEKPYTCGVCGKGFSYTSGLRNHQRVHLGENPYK
UniProt Q9UJN7: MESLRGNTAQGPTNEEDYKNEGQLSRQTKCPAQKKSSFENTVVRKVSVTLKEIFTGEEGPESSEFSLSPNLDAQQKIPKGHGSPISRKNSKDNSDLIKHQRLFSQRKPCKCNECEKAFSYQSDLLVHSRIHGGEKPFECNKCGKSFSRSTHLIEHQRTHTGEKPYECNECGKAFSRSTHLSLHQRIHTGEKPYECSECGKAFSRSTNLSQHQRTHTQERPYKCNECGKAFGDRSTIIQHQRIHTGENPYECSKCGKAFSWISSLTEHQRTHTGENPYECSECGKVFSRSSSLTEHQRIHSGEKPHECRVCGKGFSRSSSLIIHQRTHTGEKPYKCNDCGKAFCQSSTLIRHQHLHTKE
UniProt Q9UK41: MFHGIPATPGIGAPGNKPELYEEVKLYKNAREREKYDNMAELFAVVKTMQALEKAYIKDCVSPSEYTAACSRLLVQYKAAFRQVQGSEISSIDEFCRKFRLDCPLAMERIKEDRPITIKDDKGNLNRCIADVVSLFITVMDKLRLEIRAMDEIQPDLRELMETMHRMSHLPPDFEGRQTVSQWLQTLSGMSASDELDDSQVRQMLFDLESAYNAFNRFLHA
UniProt Q9NZN4: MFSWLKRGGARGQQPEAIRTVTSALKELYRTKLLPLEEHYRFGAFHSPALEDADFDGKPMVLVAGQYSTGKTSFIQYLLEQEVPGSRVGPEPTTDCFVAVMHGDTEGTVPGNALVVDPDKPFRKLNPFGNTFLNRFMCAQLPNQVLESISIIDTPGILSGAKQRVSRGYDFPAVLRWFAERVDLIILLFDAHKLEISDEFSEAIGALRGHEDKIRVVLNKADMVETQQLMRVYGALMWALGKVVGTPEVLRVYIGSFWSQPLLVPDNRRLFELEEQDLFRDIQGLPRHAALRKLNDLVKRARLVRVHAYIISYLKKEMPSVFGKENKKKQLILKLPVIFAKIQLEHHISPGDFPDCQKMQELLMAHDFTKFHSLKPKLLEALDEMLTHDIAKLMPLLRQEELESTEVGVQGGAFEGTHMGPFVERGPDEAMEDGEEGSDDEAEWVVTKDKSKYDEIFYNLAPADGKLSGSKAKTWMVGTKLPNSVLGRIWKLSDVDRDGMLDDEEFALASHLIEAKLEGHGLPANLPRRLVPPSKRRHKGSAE
UniProt Q9NZI7: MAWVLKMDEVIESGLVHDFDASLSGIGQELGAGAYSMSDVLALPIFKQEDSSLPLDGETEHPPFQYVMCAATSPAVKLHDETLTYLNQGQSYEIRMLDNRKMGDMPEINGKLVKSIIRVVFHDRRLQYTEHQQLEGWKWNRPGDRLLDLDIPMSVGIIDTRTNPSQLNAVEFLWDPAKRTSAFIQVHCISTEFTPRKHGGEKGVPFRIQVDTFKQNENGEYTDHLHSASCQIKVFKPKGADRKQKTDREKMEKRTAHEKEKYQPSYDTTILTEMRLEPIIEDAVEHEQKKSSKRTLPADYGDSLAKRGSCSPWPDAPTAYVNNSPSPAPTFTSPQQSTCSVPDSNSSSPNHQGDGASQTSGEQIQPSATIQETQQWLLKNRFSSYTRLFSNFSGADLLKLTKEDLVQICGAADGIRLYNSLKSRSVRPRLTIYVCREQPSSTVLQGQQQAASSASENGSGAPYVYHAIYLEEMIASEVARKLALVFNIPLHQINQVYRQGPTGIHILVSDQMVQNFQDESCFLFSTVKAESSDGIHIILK
UniProt Q9P258, whole entry: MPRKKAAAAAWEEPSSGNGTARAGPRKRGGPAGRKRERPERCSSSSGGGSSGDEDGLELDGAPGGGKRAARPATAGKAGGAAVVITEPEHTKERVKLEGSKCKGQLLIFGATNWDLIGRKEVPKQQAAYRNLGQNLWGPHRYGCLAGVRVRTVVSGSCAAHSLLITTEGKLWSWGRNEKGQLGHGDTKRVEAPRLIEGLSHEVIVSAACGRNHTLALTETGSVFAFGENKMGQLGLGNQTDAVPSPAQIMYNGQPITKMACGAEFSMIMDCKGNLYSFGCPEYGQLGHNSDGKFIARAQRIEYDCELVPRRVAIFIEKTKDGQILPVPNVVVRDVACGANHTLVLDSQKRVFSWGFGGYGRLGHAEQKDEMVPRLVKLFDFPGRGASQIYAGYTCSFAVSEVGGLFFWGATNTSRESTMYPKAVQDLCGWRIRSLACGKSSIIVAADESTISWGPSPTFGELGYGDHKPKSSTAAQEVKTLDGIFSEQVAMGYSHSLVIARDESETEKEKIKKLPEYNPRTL
UniProt Q9UK53: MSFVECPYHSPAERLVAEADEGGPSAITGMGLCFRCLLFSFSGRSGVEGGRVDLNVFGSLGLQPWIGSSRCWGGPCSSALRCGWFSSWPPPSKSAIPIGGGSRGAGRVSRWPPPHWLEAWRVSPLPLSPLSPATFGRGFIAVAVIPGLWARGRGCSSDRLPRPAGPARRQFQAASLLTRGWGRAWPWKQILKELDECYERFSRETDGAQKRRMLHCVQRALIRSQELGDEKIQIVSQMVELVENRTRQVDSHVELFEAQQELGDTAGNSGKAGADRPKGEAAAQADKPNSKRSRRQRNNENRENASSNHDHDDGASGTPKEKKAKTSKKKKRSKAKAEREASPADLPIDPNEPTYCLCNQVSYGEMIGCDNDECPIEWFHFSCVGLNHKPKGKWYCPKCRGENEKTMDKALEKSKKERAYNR
UniProt Q9NZI5: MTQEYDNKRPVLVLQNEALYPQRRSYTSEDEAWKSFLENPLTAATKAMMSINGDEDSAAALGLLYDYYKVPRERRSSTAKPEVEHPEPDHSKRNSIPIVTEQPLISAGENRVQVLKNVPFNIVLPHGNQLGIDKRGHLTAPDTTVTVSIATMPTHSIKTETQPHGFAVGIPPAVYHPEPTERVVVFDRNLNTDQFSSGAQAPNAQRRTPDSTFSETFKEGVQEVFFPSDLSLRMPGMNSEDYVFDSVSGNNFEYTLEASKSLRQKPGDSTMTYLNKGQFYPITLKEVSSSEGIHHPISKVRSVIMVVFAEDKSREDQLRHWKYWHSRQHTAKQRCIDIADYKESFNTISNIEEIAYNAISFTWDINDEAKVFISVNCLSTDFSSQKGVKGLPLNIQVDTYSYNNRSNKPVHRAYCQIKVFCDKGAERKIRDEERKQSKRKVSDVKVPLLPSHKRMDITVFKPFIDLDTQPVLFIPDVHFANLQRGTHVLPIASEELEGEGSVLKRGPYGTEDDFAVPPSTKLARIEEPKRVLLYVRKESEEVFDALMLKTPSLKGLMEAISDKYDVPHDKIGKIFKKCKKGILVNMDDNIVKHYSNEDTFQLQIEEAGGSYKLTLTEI
UniProt Q9UI09, whole entry: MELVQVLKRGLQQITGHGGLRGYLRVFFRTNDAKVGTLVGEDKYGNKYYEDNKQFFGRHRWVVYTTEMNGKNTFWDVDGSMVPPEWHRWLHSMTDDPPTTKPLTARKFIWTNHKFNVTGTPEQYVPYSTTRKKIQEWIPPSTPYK
UniProt Q9NZW5: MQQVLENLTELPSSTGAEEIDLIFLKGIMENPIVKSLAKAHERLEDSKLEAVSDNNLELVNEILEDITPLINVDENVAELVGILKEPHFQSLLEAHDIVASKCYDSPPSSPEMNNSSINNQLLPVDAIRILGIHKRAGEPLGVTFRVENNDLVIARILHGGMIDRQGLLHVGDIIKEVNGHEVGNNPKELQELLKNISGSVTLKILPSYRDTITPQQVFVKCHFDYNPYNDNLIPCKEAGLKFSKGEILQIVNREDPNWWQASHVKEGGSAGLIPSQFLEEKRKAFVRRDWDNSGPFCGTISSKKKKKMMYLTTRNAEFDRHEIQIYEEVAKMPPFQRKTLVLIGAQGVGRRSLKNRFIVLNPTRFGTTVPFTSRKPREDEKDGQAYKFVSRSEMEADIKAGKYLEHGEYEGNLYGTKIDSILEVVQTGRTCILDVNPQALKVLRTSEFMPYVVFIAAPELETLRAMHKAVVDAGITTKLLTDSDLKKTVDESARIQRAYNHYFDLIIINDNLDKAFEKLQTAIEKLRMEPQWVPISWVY
UniProt Q9UGI8: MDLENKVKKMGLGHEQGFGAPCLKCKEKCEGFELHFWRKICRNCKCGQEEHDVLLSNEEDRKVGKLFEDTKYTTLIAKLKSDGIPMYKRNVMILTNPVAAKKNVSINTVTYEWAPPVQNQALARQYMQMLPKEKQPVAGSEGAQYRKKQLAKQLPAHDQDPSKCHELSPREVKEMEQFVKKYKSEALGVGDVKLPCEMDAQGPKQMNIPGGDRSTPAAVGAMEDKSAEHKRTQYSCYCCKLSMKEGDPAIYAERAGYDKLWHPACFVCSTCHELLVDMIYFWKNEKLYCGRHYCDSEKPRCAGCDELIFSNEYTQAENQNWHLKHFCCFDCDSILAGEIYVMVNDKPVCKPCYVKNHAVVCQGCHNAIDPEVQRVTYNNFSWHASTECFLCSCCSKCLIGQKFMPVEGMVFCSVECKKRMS
UniProt Q9P2G9: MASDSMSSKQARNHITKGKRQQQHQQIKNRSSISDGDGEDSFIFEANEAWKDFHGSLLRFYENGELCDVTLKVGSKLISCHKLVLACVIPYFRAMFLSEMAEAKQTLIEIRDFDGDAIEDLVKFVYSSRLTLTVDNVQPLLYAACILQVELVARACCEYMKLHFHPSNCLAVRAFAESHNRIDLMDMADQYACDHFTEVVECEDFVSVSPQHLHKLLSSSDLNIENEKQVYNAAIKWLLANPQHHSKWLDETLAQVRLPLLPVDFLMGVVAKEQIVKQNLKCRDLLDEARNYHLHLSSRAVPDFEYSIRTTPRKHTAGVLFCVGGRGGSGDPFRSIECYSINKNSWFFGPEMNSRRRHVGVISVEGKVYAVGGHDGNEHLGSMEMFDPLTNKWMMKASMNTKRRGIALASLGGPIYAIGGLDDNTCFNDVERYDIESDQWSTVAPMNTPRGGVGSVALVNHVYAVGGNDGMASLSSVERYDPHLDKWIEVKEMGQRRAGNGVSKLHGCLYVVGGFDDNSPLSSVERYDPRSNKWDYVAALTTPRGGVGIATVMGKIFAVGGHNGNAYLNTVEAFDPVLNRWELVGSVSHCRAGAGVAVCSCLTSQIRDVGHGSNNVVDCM
UniProt Q9UFC0: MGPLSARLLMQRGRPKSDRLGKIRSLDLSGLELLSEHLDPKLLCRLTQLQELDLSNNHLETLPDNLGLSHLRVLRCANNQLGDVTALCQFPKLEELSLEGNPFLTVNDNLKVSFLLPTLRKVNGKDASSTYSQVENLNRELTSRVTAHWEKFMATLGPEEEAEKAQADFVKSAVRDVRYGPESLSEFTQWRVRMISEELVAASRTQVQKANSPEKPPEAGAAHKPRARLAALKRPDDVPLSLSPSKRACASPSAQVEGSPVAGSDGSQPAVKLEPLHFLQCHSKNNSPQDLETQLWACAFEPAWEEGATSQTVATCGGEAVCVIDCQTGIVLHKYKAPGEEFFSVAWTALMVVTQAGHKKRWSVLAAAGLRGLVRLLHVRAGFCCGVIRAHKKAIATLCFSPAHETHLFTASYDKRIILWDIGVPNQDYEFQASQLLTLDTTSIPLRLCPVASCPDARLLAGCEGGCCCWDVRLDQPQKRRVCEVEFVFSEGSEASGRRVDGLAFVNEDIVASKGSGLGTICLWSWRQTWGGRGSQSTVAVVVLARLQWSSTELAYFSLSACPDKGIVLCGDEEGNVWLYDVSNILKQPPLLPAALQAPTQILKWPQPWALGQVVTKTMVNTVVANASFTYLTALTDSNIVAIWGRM

What follows are targets tested with CN[C@@H]1C[C@H]2O[C@@](C)([C@@H]1OC)n1c3ccccc3c3c4c(c5c6ccccc6n2c5c31)C(=O)NC4 [staurosporine] (assay: log2 fold change of tryptic peptide abundance, ligand vs vehicle (limited proteolysis) (log2 ratio); higher = more trypsin-susceptible (destabilized)). Details: ligand concentration: 20 uM; sample: K562 cleared lysate; digestion: 4 min, 22 C (HT-PELSA RT4min, Orbitrap Astral).

Row | Target | log2 fold change
1 | ZNF219 (peptide sequence: REPPSLLGYLSLR, peptide start residue: 373) (UniProt Q9P2Y4) | 0.145
2 | PEF1 (peptide sequence: LSFEDFVTMTASR, peptide start residue: 270) (UniProt Q9UBV8) | -0.308
3 | UniProt Q9UJW7 (peptide sequence: GFRYGSGLLSHK, peptide start residue: 720) | 0.0514
4 | ZNF391 (peptide sequence: THTGENPYECSECGK, peptide start residue: 270) (UniProt Q9UJN7) | -0.586
5 | HECW2 (peptide sequence: ADDGSLTSQTK, peptide start residue: 497) (UniProt Q9P2P5) | -0.348
6 | VPS28 (peptide sequence: IKEDRPITIK, peptide start residue: 110) (UniProt Q9UK41) | 0.378
7 | UniProt Q9UK11 (peptide sequence: DVMLENFR, peptide start residue: 35) | 0.0325
8 | VPS51 (peptide sequence: ISATLQDRHER, peptide start residue: 153) (UniProt Q9UID3) | 0.218
9 | ANKFY1 (peptide sequence: HGCDATCWGPGPGGCLQTLLHR, peptide start residue: 710) (UniProt Q9P2R3) | -0.512
10 | IMPACT (peptide sequence: TEVEVEELPPIDHGIPITDRR, peptide start residue: 163) (UniProt Q9P2X3) | -0.415
11 | DDX25 (peptide sequence: TAAFVLAMLSR, peptide start residue: 144) (UniProt Q9UHL0) | 0.153
12 | ZNHIT2 (peptide sequence: EERDHLYR, peptide start residue: 328) (UniProt Q9UHR6) | -0.649
13 | TBC1D7 (peptide sequence: MYQLESGKLPR, peptide start residue: 111) (UniProt Q9P0N9) | -0.162
14 | EHD2 (peptide sequence: VVGTPEVLR, peptide start residue: 243) (UniProt Q9NZN4) | 0.172
15 | UBP1 (peptide sequence: TSAFIQVHCISTEFTPR, peptide start residue: 180) (UniProt Q9NZI7) | 0.235
16 | DHCR7 (peptide sequence: SLDGVTNDR, peptide start residue: 14) (UniProt Q9UBM7) | -0.0837
17 | UniProt Q9UJK0 (peptide sequence: QYASPADR, peptide start residue: 104) | -0.875
18 | RCC2 (peptide sequence: LIEGLSHEVIVSAACGR, peptide start residue: 195) (UniProt Q9P258) | 0.292

Row | Target | log2 fold change
19 | EGFL7 (peptide sequence: NGGSCVQPGR, peptide start residue: 113) (UniProt Q9UHF1) | -0.419
20 | IBTK (peptide sequence: VNFHEDDNQK, peptide start residue: 671) (UniProt Q9P2D0) | 0.473
21 | ING1 (peptide sequence: MLHCVQR, peptide start residue: 213) (UniProt Q9UK53) | 0.634
22 | ACTR3B (peptide sequence: HGIIEDWDLMER, peptide start residue: 80) (UniProt Q9P1U1) | 0.438
23 | UniProt Q9UGP5 (peptide sequence: QKIHADASSK, peptide start residue: 14) | 0.769
24 | CLIP2 (peptide sequence: QSSGPSSSPAAAAAPEKPGPK, peptide start residue: 47) (UniProt Q9UDT6) | -0.482
25 | UniProt Q9NZI5 (peptide sequence: EVSSSEGIHHPISK, peptide start residue: 286) | 0.224
26 | ARHGAP28 (peptide sequence: FGLTEAGDLSAEDMKK, peptide start residue: 327) (UniProt Q9P2N2) | -0.726
27 | NDUFA12 (peptide sequence: MELVQVLKR, peptide start residue: 1) (UniProt Q9UI09) | 0.379
28 | LIMA1 (peptide sequence: KGTLTVLKK, peptide start residue: 66) (UniProt Q9UHB6) | 0.585
29 | EVL (peptide sequence: SPLQSQPHSR, peptide start residue: 354) (UniProt Q9UI08) | 0.207
30 | UBA2 (peptide sequence: ESVLQFYPK, peptide start residue: 78) (UniProt Q9UBT2) | 0.135
31 | MPP6 (peptide sequence: EGGSAGLIPSQFLEEKR, peptide start residue: 267) (UniProt Q9NZW5) | 0.902
32 | FEZ2 (peptide sequence: SSTGSYEER, peptide start residue: 204) (UniProt Q9UHY8) | -0.463
33 | TES (peptide sequence: RTQYSCYCCK, peptide start residue: 231) (UniProt Q9UGI8) | -0.66
34 | KLHL8 (peptide sequence: AFAESHNR, peptide start residue: 174) (UniProt Q9P2G9) | 0.261
35 | LRWD1 (peptide sequence: VTAHWEK, peptide start residue: 145) (UniProt Q9UFC0) | 0.371
36 | CCDC59 (peptide sequence: TVNSFTIPK, peptide start residue: 153) (UniProt Q9P031) | -0.155

Single values from the entries so far:
Entry for EVL (peptide sequence: SPLQSQPHSR, peptide start residue: 354) (UniProt Q9UI08) under log2 fold change: 0.207
Entry for ARHGAP28 (peptide sequence: FGLTEAGDLSAEDMKK, peptide start residue: 327) (UniProt Q9P2N2) under log2 fold change: -0.726
